The list shows a part of the results.

Chains of the proteins cited; added tags and fusions are not shown. Lines headed by an entry give the natural chain unless they say otherwise; changes in a name come on top.
UniProt O15525: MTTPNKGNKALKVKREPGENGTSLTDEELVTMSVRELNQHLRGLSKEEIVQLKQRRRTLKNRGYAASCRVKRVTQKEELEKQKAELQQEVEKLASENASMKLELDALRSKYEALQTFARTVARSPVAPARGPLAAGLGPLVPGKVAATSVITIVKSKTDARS
UniProt Q9NQ48: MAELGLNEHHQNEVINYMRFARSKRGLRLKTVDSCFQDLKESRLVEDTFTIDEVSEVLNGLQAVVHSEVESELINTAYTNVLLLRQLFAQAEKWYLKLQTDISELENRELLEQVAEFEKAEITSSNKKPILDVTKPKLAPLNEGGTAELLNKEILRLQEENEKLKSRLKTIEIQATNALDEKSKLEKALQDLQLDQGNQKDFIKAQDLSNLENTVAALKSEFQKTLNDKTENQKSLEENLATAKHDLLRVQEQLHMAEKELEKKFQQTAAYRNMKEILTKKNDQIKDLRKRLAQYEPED
UniProt P20645: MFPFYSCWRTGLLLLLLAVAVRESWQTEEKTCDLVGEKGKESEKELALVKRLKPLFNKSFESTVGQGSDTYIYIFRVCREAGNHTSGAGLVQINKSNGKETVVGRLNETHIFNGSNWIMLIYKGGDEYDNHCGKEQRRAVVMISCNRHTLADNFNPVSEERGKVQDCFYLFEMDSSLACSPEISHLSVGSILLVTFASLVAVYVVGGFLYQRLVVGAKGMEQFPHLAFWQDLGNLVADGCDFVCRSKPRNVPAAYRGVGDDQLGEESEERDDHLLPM
UniProt Q13257, whole entry, looked up: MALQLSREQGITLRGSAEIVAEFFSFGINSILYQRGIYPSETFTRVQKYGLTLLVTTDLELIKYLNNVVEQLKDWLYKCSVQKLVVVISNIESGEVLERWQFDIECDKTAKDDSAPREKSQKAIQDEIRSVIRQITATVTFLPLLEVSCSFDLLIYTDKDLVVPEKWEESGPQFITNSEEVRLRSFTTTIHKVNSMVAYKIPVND
UniProt P53778: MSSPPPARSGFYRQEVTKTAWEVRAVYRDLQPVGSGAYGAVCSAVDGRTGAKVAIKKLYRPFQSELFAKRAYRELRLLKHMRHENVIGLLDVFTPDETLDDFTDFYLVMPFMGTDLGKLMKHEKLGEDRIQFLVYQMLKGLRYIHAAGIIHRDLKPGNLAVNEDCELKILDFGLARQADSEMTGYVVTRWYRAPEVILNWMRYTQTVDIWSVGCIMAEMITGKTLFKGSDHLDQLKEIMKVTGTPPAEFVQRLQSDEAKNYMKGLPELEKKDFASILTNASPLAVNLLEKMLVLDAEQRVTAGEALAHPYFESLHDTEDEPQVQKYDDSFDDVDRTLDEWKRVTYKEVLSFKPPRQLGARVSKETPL
UniProt Q14244: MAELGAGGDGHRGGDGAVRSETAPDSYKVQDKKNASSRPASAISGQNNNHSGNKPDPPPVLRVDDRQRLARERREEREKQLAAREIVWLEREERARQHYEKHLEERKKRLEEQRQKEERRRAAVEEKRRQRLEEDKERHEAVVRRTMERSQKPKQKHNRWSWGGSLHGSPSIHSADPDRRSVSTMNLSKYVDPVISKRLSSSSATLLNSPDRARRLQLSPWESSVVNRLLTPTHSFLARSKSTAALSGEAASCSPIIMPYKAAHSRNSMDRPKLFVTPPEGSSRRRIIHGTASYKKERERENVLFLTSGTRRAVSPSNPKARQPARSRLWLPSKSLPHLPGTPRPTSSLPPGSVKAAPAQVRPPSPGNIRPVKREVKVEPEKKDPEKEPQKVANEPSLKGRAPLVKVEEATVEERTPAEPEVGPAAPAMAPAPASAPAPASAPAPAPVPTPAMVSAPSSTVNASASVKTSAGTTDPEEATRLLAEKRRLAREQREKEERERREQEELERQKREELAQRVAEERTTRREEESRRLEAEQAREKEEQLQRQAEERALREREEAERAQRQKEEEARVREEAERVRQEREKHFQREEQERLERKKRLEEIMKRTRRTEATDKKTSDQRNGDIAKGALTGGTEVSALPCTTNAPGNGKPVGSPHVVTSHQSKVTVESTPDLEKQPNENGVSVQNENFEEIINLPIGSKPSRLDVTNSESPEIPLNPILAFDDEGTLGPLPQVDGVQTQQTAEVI
UniProt Q16553: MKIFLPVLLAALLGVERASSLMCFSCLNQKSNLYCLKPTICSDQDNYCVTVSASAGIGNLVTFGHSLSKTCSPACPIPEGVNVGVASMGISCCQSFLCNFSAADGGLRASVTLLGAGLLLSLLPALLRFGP
UniProt Q8IVH8: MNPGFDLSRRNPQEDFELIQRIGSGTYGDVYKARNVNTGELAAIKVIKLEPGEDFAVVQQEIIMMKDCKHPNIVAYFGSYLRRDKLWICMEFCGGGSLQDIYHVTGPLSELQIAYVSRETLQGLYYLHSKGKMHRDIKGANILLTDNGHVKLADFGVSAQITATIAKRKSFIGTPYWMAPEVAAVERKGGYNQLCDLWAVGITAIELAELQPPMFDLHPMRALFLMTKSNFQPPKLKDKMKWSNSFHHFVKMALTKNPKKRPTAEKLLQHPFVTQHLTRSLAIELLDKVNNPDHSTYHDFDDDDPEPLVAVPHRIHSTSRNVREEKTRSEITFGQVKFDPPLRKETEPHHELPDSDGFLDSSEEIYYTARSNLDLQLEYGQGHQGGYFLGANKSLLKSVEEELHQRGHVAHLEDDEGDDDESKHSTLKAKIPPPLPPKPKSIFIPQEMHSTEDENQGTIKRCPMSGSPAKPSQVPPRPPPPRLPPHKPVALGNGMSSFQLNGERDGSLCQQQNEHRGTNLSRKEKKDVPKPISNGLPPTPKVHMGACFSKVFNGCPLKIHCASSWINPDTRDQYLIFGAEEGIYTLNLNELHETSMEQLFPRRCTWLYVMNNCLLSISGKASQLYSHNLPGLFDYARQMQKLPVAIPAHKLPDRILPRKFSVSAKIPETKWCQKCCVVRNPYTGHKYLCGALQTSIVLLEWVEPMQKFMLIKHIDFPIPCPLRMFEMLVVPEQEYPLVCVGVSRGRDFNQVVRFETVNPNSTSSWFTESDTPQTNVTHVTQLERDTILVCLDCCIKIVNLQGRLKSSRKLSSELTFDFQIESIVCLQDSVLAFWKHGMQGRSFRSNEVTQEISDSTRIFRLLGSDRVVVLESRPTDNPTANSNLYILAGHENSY
UniProt Q5SRI9: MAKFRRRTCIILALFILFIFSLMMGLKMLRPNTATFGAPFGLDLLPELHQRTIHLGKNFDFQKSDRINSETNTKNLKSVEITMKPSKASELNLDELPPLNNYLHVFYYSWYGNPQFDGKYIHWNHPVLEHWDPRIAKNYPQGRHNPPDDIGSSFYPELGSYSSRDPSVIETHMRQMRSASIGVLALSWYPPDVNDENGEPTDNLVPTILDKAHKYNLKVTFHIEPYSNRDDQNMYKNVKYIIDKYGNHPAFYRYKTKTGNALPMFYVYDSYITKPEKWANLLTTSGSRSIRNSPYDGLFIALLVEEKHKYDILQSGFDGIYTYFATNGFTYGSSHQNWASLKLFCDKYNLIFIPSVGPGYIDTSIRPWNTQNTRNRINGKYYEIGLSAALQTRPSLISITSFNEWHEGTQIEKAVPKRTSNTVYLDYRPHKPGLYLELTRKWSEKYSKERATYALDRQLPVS
UniProt Q6P0Q8: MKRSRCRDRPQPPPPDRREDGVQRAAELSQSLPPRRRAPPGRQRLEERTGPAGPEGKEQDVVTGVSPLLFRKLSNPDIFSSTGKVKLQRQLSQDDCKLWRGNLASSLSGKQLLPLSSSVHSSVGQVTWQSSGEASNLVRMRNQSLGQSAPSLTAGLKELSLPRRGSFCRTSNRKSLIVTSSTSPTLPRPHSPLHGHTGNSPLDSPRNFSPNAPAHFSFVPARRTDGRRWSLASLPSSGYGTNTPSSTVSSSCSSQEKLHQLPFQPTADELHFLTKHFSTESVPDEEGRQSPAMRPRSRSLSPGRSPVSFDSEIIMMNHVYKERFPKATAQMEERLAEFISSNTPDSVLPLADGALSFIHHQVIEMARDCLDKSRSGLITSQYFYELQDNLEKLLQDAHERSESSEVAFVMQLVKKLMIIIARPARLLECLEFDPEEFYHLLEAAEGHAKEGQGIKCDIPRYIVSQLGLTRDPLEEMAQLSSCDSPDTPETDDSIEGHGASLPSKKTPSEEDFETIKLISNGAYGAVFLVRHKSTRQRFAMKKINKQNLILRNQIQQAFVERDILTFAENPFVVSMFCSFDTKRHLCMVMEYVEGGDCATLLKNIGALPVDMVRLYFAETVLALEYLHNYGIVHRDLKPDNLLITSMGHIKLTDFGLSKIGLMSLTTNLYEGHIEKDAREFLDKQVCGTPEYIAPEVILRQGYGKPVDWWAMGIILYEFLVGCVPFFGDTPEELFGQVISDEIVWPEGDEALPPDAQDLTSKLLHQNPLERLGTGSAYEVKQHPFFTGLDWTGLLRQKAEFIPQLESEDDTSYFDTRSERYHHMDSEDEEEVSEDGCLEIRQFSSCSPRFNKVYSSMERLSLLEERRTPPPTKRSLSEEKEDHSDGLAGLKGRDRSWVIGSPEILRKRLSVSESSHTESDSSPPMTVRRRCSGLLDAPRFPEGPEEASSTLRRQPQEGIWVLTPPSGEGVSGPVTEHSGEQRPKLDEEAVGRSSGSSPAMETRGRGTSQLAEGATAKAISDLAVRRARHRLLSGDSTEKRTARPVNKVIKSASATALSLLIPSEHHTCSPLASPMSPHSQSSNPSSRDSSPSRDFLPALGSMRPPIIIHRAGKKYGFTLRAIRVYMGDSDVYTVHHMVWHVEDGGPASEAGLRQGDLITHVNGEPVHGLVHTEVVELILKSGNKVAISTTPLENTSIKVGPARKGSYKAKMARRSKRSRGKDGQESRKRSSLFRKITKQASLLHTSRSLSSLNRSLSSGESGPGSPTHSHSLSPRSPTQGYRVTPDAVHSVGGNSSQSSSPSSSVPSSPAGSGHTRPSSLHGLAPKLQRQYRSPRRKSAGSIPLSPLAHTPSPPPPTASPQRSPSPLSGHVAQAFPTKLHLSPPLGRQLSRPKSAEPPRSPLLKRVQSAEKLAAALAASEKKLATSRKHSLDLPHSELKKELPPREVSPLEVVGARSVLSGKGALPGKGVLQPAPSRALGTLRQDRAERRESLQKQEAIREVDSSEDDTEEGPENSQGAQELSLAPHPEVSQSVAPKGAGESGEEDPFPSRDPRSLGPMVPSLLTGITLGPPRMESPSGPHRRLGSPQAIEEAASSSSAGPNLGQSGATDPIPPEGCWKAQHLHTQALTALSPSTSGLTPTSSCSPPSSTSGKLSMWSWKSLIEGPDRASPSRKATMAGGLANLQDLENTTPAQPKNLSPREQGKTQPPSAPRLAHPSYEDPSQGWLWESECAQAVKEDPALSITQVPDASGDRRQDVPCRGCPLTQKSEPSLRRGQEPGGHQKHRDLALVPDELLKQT
UniProt O95819: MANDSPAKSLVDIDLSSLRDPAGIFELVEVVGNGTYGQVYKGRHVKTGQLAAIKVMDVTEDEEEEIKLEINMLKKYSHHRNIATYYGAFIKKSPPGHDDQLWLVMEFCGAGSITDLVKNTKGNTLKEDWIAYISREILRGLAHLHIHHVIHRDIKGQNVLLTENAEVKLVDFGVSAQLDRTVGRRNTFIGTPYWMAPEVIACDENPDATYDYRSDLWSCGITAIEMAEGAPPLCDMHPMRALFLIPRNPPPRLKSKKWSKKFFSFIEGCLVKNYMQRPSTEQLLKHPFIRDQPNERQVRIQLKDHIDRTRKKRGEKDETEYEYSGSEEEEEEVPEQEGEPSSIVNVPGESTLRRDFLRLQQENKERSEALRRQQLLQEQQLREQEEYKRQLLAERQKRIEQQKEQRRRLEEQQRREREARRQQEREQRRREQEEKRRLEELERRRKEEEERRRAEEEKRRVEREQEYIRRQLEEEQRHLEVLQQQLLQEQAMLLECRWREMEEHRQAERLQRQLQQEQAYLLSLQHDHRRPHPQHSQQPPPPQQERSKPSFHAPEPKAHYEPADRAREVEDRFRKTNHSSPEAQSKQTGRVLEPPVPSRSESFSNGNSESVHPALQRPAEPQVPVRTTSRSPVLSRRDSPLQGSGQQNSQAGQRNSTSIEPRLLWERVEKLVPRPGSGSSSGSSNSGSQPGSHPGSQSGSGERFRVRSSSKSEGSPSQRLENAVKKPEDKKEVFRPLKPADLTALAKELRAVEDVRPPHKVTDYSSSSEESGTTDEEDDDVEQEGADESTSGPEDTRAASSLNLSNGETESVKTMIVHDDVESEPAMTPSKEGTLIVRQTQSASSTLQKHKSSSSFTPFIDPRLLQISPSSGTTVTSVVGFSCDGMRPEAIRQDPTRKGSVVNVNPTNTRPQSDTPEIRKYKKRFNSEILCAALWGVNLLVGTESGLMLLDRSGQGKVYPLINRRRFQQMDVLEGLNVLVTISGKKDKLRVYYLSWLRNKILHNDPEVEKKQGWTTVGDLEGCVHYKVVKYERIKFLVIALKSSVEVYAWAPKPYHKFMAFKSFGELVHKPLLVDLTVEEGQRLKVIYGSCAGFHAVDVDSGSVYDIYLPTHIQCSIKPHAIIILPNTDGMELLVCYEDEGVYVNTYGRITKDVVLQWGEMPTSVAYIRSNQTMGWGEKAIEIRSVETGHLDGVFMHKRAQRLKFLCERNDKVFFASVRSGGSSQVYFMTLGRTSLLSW

The record followed here is the supplement of paper PMC10849652.

Compound in one test: CC(C)C1=C2N=C(C=C(N2N=C1)NCC3=CC=CC=C3)NCCCCCCN
The experiment in a line: log2 fold change, soluble protein after heating vs DMSO (PISA); higher = thermal stabilisation; K562 lysate, 10 uM; active = over 0.2 and 3.5 SD of the protein, either way, in both replicates (recomputed). A digest of the protocol: (§1)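 Following dounce homogenisation of K562 pellets in PBS pH 7.4 with 1 mM MgCl2, crude extract at 1 mg/mL protein was incubated for 30 min with 10 μM compound. Aliquots were then heated for 3 min over 48°C-58°C and pooled, NP-40 was added to 0.5% at 4°C, and soluble protein was recovered as the supernatant at 21,000xg for 90 min. Channel-sum-equalised TMTpro 16plex LC-MS/MS quantified this protein. Each value, from duplicates, is a log-two fold change in thermal stability relative to solvent controls.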
Take MAFG (UniProt O15525): the log2 fold change is inactive: 0.013.

Take MAPK11 (UniProt Q15759): the log2 fold change was inactive: 0.262.

Take MAGED1 isoform 2 (UniProt Q9Y5V3): the log2 fold change was inactive: -0.059.

For the target LZTFL1 (UniProt Q9NQ48), the log2 fold change is inactive: -0.008.

Regarding M6PR (UniProt P20645), the log2 fold change is inactive: -0.015.

As for MAD2L1 (UniProt Q13257), the log2 fold change is inactive: -0.021.

Compound in the next test: CC1=C(C(CC(=O)N1)C2=CC=C(C=C2)C(F)(F)F)C(=O)NC3=C(C=C4C(=C3)C=NN4)F
The test is described as above. Put shortly:
as §1
For LUC7L3 (UniProt O95232), the log2 fold change is inactive: -0.006.

For MAP3K5 (UniProt Q99683), the log2 fold change is inactive: 0.039.

On to MACF1, A0A0A6YYJ5, for which the log2 fold change is inactive: 0.035.

For LTO1 (UniProt Q8WV07), the log2 fold change was inactive: -0.275.

As to LTBP4 (UniProt Q8N2S1), the log2 fold change is inactive: -0.037.

MAGI3 isoform 1 (UniProt Q5TCQ9): the log2 fold change was inactive: -0.106.

For MAML1 (UniProt Q92585), the log2 fold change is inactive: 0.078.

With MAP4 isoform 5 (UniProt P27816), the log2 fold change was inactive: 0.048.

MAP4K5 (UniProt Q9Y4K4): the log2 fold change was inactive: -0.003.

For the target MAPK12 (UniProt P53778), the log2 fold change is inactive: 0.074.

MAP7 (UniProt Q14244): the log2 fold change is inactive: 0.028.

As to MARF1 (UniProt Q9Y4F3), the log2 fold change was inactive: -0.021.

As to MAN2B2 (UniProt Q9Y2E5), the log2 fold change was inactive: 0.056.

On to MAP4 (UniProt E7EVA0), for which the log2 fold change was inactive: -0.058.

For the target MARCHF6 (UniProt O60337), the log2 fold change was inactive: 0.014.

Turning to MACF1 (UniProt E9PLY5), the log2 fold change is inactive: -0.023.

For LZTS2 (UniProt Q9BRK4), the log2 fold change was inactive: -0.085.

As to MAP7D3 (UniProt Q8IWC1), the log2 fold change was inactive: 0.035.

Take MAFG (UniProt O15525): the log2 fold change was inactive: 0.036.

Regarding MAPK11 (UniProt Q15759), the log2 fold change was inactive: -0.241.

MAGED1 isoform 2 (UniProt Q9Y5V3): the log2 fold change was inactive: 0.063.

Consider LY6E (UniProt Q16553), for which the log2 fold change is inactive: -0.027.

On to LZTFL1 (UniProt Q9NQ48), for which the log2 fold change is inactive: -0.009.

In the case of M6PR (UniProt P20645), the log2 fold change is inactive: 0.082.

MAD2L1 (UniProt Q13257): the log2 fold change is inactive: -0.003.

Compound in another test: CC1=C(C2=C(C=C1)C(=O)C3=CC=CC=C3N2CCCN)C
The description is as above. Put shortly:
as §1
Take LUC7L3 (UniProt O95232): the log2 fold change was inactive: -0.021.

As to MACF1, A0A0A6YYJ5, the log2 fold change is inactive: -0.016.

In the case of MAP4K3 (UniProt Q8IVH8), the log2 fold change is inactive: -0.005.

As to LTO1 (UniProt Q8WV07), the log2 fold change is inactive: 0.001.

Regarding MANEA (UniProt Q5SRI9), the log2 fold change was inactive: -0.009.

Consider LTBP4 (UniProt Q8N2S1), for which the log2 fold change was inactive: -0.067.

For MAP4K2 (UniProt Q12851), the log2 fold change was inactive: -0.144.

Consider MAST2 (UniProt Q6P0Q8), for which the log2 fold change is inactive: -0.157.

As to MAGI3 isoform 1 (UniProt Q5TCQ9), the log2 fold change was inactive: -0.111.

For MAML1 (UniProt Q92585), the log2 fold change is inactive: 0.003.

As to MAP4 isoform 5 (UniProt P27816), the log2 fold change is inactive: 0.019.

For the target MAP4K5 (UniProt Q9Y4K4), the log2 fold change was inactive: 0.009.

For MAPK12 (UniProt P53778), the log2 fold change was inactive: 0.08.

As to MAP7 (UniProt Q14244), the log2 fold change was inactive: -0.075.

Regarding MARF1 (UniProt Q9Y4F3), the log2 fold change was inactive: 0.037.

As for MAN2B2 (UniProt Q9Y2E5), the log2 fold change is inactive: -0.013.

MAP4 (UniProt E7EVA0): the log2 fold change was inactive: 0.008.

Turning to MARCHF6 (UniProt O60337), the log2 fold change is inactive: 0.101.

On to MAP4K4 isoform 6 (UniProt O95819), for which the log2 fold change was inactive: -0.127.

As for LZTS2 (UniProt Q9BRK4), the log2 fold change was inactive: 0.025.

For the target MAP7D3 (UniProt Q8IWC1), the log2 fold change was inactive: 0.009.

For MAFG (UniProt O15525), the log2 fold change was inactive: 0.084.

LZTFL1 (UniProt Q9NQ48): the log2 fold change was inactive: 0.012.

Take M6PR (UniProt P20645): the log2 fold change was inactive: -0.01.

Consider MAD2L1 (UniProt Q13257), for which the log2 fold change was inactive: -0.03.
